Experimental data as given in US12435083B2, “Cyclopropyl-(hetero)aryl-substituted ethylsulphonyl-pyridine derivatives” (BOEHRINGER INGELHEIM VETMEDICA GMBH, priority 2021, dated 2025).
Some of these results come from one statement about several compounds together. For at least one compound, name, drawing or mass did not settle the structure.

How the values were obtained:
[1] = system: Plutella xylostella; assay: Insecticidal test on Plutella xylostella (Chinese cabbage seedling dip); conditions: 500 ppm, 6 days after dip treatment
Method: Example 12: Insecticidal Test on Plutella xylostella
(§1) The compounds of formula (I) of the present invention or salts thereof were separately dispersed in water and diluted to 500 ppm. Ten adults of Plutella xylostella were released onto Chinese cabbage seedlings and allowed to lay eggs thereon. 2 days after the release of the adults, the seedling was dipped in the dispersion for about 30 seconds. After air dried, the seedling was kept in a room at 25° C. 6 days after the dip treatment, the numbers of the dead and alive insects were counted. The corrected mortality rate was calculated according to the following formula and the insecticidal activity was evaluated according to the following criteria. Corrected mortality rate (%)=100×(Survival rate in an untreated plot−Survival rate in a treated plot)/Survival rate in an untreated plot • A: the corrected mortality rate is 100% • B: the corrected mortality rate is 90 to 99% • C: the corrected mortality rate is 80 to 89% • D: the corrected mortality rate is 50 to 79%

[2] = system: Spodoptera litura 2nd-instar larvae; assay: Insecticidal test on Spodoptera litura (cabbage leaf dip); conditions: 500 ppm, 8 days after inoculation
Method: Example 11: Insecticidal Test on Spodoptera litura
as §1, with “Cabbage leaves” for “Ten adults of Plutella xylostella”, “were” for “were released onto Chinese cabbage seedlings and allowed to lay eggs thereon. 2 days after the release of the adults, the seedling was”, “leaves were placed in a plastic Petri dish with a diameter of 9 cm and inoculated with ten 2nd-instar larvae of Spodoptera litura, after which the dish” for “seedling”, “closed and then allowed to stand” for “kept”, “8” for “6”, “inoculation,” for “dip treatment,”

[3] = system: Laodelphax striatellus 3rd-instar nymphs; assay: Insecticidal test on Laodelphax striatellus (rice seedling dip); conditions: 500 ppm, 8 days after inoculation
Method: Example 13: Insecticidal Test on Laodelphax striatellus
as §1, with “Rice plant seedlings” for “Ten adults of Plutella xylostella”, “were” for “were released onto Chinese cabbage seedlings and allowed to lay eggs thereon. 2 days after the release of the adults, the seedling was”, “seedlings were put into a separate glass test tube and inoculated with ten 3rd-instar nymphs of Laodelphax striatellus and then the glass test tube” for “seedling”, “8” for “6”, “inoculation,” for “dip treatment,”

[4] = system: Myzus persicae; assay: Insecticidal test on Myzus persicae (foliar application on potted Chinese cabbage); conditions: 500 ppm, 6 days after application
From the text: Example 14: Insecticidal Test on Myzus persicae
The compounds of formula (I) of the present invention or salts thereof were separately dispersed in water and diluted to 500 ppm. Chinese cabbage plants were planted in plastic pots (diameter: 8 cm, height: 8 cm). Aphids (Myzus persicae) were propagated on the plants and then the number of surviving aphids was counted. The dispersion was applied to the foliage of the potted plants. After the plants were air dried, these were kept in a greenhouse. 6 days after the application, the number of the alive insects was counted on the plants. The control rate was calculated according to the following formula and the control efficacy was evaluated according to the following criteria. Control rate (%)=100−{(T×Ca)/(Ta×C)}×100 • Ta: the number of alive insects before the foliar application in a treated plot • T: the number of alive insects after the foliar application in a treated plot • Ca: the number of alive insects before the foliar application in an untreated plot • C: the number of alive insects after the foliar application in an untreated plot • A: the control rate is 100% • B: the control rate is 90 to 99% • C: the control rate is 80 to 89% • D: the control rate is 50 to 79%

CCS(=O)(=O)c1cc(-c2ccc(C3CC3)c(F)c2)cnc1-c1cc2n(CC(F)F)cc(C(F)(F)F)cc-2n1 [compound 8]
activity level (corrected mortality rate), Plutella xylostella [1]: A (the corrected mortality rate is 100%)

CCS(=O)(=O)c1cc(-c2ccc(F)c(C3CC3)c2)cnc1-c1cc2n(CC(F)F)cc(C(F)(F)F)cc-2n1 [compound 9]
activity level (corrected mortality rate), Plutella xylostella [1]: A (the corrected mortality rate is 100%)

CCS(=O)(=O)c1cc(-c2ccc(C(F)(F)F)c(C3CC3)c2)cnc1-c1cc2n(CC(F)F)cc(C(F)(F)F)cc-2n1 [compound 10]
activity level (corrected mortality rate), Plutella xylostella [1]: A (the corrected mortality rate is 100%) | activity level (corrected mortality rate), Spodoptera litura [2]: A (the corrected mortality rate is 100%)

CCS(=O)(=O)c1cc(-c2cccc(C3CC3)c2)cnc1-c1cc2n(CC(F)F)cc(C(F)(F)F)cc-2n1 [compound 11]
activity level (corrected mortality rate), Plutella xylostella [1]: A (the corrected mortality rate is 100%)

CCS(=O)(=O)c1cc(-c2ccc(C3CC3)cc2)cnc1-c1nc2cc3c(cc2n1C)OC(F)(F)O3 [compound 15]
activity level (corrected mortality rate), Plutella xylostella [1]: A (the corrected mortality rate is 100%) | activity level (corrected mortality rate), Laodelphax striatellus [3]: A (the corrected mortality rate is 100%) | control efficacy level (control rate), Myzus persicae [4]: A (the control rate is 100%)

CCS(=O)(=O)c1cc(-c2cc(C3CC3)ccn2)cnc1-c1cc2n(CC(F)F)cc(C(F)(F)F)cc-2n1 [compound 16]
activity level (corrected mortality rate), Plutella xylostella [1]: A (the corrected mortality rate is 100%)

CCS(=O)(=O)c1cc(-c2ccc(C3(O)CC3)cc2)cnc1-c1nc2cc(C(F)(F)C(F)(F)F)nnc2n1C [compound 21]
activity level (corrected mortality rate), Plutella xylostella [1]: A (the corrected mortality rate is 100%) | control efficacy level (control rate), Myzus persicae [4]: A (the control rate is 100%)

CCn1cc(C(F)(F)F)cc2nc(-c3ncc(-c4ccc(C5(F)CC5)cc4)cc3S(=O)(=O)CC)cc1-2 [compound 24]
activity level (corrected mortality rate), Plutella xylostella [1]: A (the corrected mortality rate is 100%)

CCS(=O)(=O)c1cc(-c2ccc(C3CC3)cc2)cnc1-c1cn2cnc(C(F)(F)F)cc2n1 [compound 31]
activity level (corrected mortality rate), Plutella xylostella [1]: A (the corrected mortality rate is 100%)

CCS(=O)(=O)c1cc(-c2ccc(C3CC3)cc2)cnc1-c1nc2cc(C(F)(F)F)nnc2n1C [compound 39]
activity level (corrected mortality rate), Plutella xylostella [1]: A (the corrected mortality rate is 100%) | activity level (corrected mortality rate), Laodelphax striatellus [3]: A (the corrected mortality rate is 100%) | control efficacy level (control rate), Myzus persicae [4]: A (the control rate is 100%)

CCS(=O)(=O)c1cc(-c2ccc(C3CC3)nc2)cnc1-c1cc2n(CC(F)F)cc(C(F)(F)F)cc-2n1 [compound 64]
activity level (corrected mortality rate), Plutella xylostella [1]: A (the corrected mortality rate is 100%)

CCn1cc(C(F)(F)F)cc2nc(-c3ncc(-c4cnc(C5CC5)nc4)cc3S(=O)(=O)CC)cc1-2 [compound 94]
activity level (corrected mortality rate), Plutella xylostella [1]: A (the corrected mortality rate is 100%)

CCS(=O)(=O)c1cc(-c2ccc(C3(C(F)(F)F)CC3)cc2)cnc1-c1ccc(OCC(F)(F)C(F)(F)F)cn1 [compound 127]
activity level (corrected mortality rate), Plutella xylostella [1]: A (the corrected mortality rate is 100%) | activity level (corrected mortality rate), Spodoptera litura [2]: A (the corrected mortality rate is 100%)

CCS(=O)(=O)c1cc(-c2ccc(C3(C(F)(F)F)CC3)nc2)cnc1-c1nc2cc(C(F)(F)F)n(C3CC3)c(=O)c2n1C [compound 132]
activity level (corrected mortality rate), Plutella xylostella [1]: A (the corrected mortality rate is 100%) | activity level (corrected mortality rate), Spodoptera litura [2]: A (the corrected mortality rate is 100%) | control efficacy level (control rate), Myzus persicae [4]: A (the control rate is 100%)

CCS(=O)(=O)c1cc(-c2ccccc2C2CC2)cnc1-c1nc2cc(C(F)(F)C(F)(F)F)nnc2n1C [compound 136]
activity level (corrected mortality rate), Plutella xylostella [1]: A (the corrected mortality rate is 100%) | activity level (corrected mortality rate), Spodoptera litura [2]: A (the corrected mortality rate is 100%)

CCS(=O)(=O)c1cc(-c2cccc(C3CC3)n2)cnc1-c1nc2cc(S(=N)(=O)C(F)(F)F)cnc2n1C (stereo not drawn) [compound 140]
activity level (corrected mortality rate), Plutella xylostella [1]: A (the corrected mortality rate is 100%)

CCS(=O)(=O)c1cc(-c2cccc(C3(C(F)(F)F)CC3)n2)cnc1-c1nc2cc(C(F)(F)C(F)(F)F)cnc2n1C [compound 144]
activity level (corrected mortality rate), Plutella xylostella [1]: A (the corrected mortality rate is 100%) | activity level (corrected mortality rate), Spodoptera litura [2]: A (the corrected mortality rate is 100%) | control efficacy level (control rate), Myzus persicae [4]: A (the control rate is 100%)

CCS(=O)(=O)c1cc(-c2cccc(C3(C(F)(F)F)CC3)n2)cnc1-c1nc2cc(C(F)(F)C(F)(F)F)nnc2n1C [compound 145]
activity level (corrected mortality rate), Plutella xylostella [1]: A (the corrected mortality rate is 100%) | activity level (corrected mortality rate), Spodoptera litura [2]: A (the corrected mortality rate is 100%) | control efficacy level (control rate), Myzus persicae [4]: A (the control rate is 100%)

CCS(=O)(=O)c1cc(-c2ccc(C3CC3(C)C)cc2)cnc1-c1nc2cc(C(F)(F)C(F)(F)F)nnc2n1C (stereo not drawn) [compound 158]
activity level (corrected mortality rate), Plutella xylostella [1]: A (the corrected mortality rate is 100%) | activity level (corrected mortality rate), Laodelphax striatellus [3]: A (the corrected mortality rate is 100%)

CCS(=O)(=O)c1cc(-c2ccc(C3(OC(F)(F)F)CC3)cc2)cnc1-c1nc2cc(C(F)(F)C(F)(F)F)cnc2n1C [compound 162]
activity level (corrected mortality rate), Plutella xylostella [1]: A (the corrected mortality rate is 100%) | activity level (corrected mortality rate), Spodoptera litura [2]: A (the corrected mortality rate is 100%) | control efficacy level (control rate), Myzus persicae [4]: A (the control rate is 100%)

CCS(=O)(=O)c1cc(-c2ccccc2C2CC2)cnc1-c1nc2cc(C(F)(F)C(F)(F)F)cnc2n1C [compound 170]
activity level (corrected mortality rate), Plutella xylostella [1]: A (the corrected mortality rate is 100%) | activity level (corrected mortality rate), Spodoptera litura [2]: A (the corrected mortality rate is 100%) | control efficacy level (control rate), Myzus persicae [4]: A (the control rate is 100%)

CCS(=O)(=O)c1cc(-c2cccc(C3(C(F)(F)F)CC3)n2)cnc1-c1nc2cc(C(F)(F)F)cn(CC(F)F)c-2c1F [compound 172]
activity level (corrected mortality rate), Spodoptera litura [2]: A (the corrected mortality rate is 100%)

CCS(=O)(=O)c1cc(-c2ccc(C3CC3)nc2)cnc1-c1nc2cc(C(F)(F)C(F)(F)F)cn(C(C)C)c-2c1F [compound 181]
activity level (corrected mortality rate), Plutella xylostella [1]: A (the corrected mortality rate is 100%) | activity level (corrected mortality rate), Spodoptera litura [2]: A (the corrected mortality rate is 100%) | control efficacy level (control rate), Myzus persicae [4]: A (the control rate is 100%)

CCS(=O)(=O)c1cc(-c2ccc(C3CC3)cc2)cnc1-c1nc2cc(C(F)(F)C(F)(F)F)cn(C(C)C)c-2c1F [compound 189]
activity level (corrected mortality rate), Plutella xylostella [1]: A (the corrected mortality rate is 100%)

CCS(=O)(=O)c1cc(-c2ccc(C3CC3)cc2)cnc1-c1nc2cc(C(F)(F)C(F)(F)F)cn(CC(F)F)c-2c1F [compound 190]
activity level (corrected mortality rate), Plutella xylostella [1]: A (the corrected mortality rate is 100%)

CCS(=O)(=O)c1cc(-c2ccc(C3(F)CC3)cc2)cnc1-n1cc2nnc(C(F)(F)C(F)(F)F)cc2n1 [compound 192]
activity level (corrected mortality rate), Plutella xylostella [1]: A (the corrected mortality rate is 100%) | activity level (corrected mortality rate), Spodoptera litura [2]: A (the corrected mortality rate is 100%)
